Test results reported in patent publication US5922688.

Sequences of proteins named here, by UniProt entry; tags and fusion partners are left off. A change or cut given only in a name is not applied to a line headed by its entry.
UniProt P28322: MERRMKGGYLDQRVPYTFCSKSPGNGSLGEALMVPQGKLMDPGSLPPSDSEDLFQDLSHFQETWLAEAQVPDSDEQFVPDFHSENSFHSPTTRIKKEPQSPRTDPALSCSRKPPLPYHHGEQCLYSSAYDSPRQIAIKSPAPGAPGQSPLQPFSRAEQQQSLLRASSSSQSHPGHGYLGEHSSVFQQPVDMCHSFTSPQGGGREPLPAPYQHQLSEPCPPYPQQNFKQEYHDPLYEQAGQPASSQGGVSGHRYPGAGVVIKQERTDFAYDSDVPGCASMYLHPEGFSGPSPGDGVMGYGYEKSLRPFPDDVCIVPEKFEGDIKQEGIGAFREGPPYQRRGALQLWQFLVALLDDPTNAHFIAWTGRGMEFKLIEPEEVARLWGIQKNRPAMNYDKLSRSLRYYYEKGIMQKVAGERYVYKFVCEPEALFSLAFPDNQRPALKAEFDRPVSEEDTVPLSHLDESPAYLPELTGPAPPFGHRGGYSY
UniProt P08515, whole entry: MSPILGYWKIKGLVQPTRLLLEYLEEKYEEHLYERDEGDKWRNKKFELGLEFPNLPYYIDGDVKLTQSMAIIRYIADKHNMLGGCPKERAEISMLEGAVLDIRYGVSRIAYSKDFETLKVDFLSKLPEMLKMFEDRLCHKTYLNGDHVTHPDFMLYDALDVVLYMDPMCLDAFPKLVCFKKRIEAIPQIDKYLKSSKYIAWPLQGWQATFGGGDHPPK

What was measured:
PEA3 (GST-PEA3 fusion) = target: T1, PEA3 (GST-PEA3 fusion) (UniProt P28322); test: EMSA; settings: purified recombinant protein; protein details: GST fusion; label: 32P
T1 sequence (limits assumed): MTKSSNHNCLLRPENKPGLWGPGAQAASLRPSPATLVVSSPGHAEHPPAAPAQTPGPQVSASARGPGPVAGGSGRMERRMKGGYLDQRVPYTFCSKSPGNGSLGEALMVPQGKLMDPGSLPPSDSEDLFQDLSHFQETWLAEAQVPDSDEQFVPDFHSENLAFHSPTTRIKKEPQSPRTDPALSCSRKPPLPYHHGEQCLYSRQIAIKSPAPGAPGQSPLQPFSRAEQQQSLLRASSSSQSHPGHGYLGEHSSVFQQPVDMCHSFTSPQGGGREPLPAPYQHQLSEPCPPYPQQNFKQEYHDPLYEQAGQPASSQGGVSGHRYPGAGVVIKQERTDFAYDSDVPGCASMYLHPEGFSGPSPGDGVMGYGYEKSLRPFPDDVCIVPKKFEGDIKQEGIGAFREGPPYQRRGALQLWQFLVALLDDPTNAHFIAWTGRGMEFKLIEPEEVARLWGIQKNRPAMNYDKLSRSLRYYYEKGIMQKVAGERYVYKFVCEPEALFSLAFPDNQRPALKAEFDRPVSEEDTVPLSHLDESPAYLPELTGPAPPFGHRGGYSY

GST (control) = GST (control) (UniProt P08515); test: EMSA; settings: 1 ug GST alone control; non-binding implied by stated specificity; purified recombinant protein; protein details: GST alone; label: 32P

**Q.** Which results are given for “AGGAAG (double strand) [HER-2/neu promoter oligonucleotide with PEA3 site]”?
**A.** binding result (PEA3 (GST-PEA3 fusion)): binds; binding result (GST (control)): no binding

Construct, isoform or probe ends are uncertain for at least one entry. For some assays here: No signal at the amounts used counts as a negative. For some assays here: Tags and fusion partners may be left off the protein sequences shown.
